# Reference: the supplement of paper PMC7824004
# Some of the results follow. The data scatter; read single values as rough.
# Test system: Candida albicans SN425
# Assay: biofilm OD600 B-score; higher = more biofilm (less inhibition)
# Settings: 10 µM; assay detail: High-throughput adherence inhibition optical density biofilm assay with C. albicans SN425 in RPMI-1640/MOPS pH 7.0, 384-well plates. …
# Experimental: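 High-throughput adherence inhibition optical density biofilm assay with C. albicans SN425 in RPMI-1640/MOPS pH 7.0, 384-well plates. Compound (10 µM) was present only during the 90 min adherence step, then washed out, and the biofilm grew 24 h without compound. Biofilm was read as OD600 after removing the media. Scores are the difference from the mean in standard deviations and the plate B-score.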
row,Compound,biofilm OD600 B-score
1,O=C(Nc1ccc(F)cc1)N1CCN(c2ccccn2)CC1,1.8
2,COCC(=O)Nc1ccc(S(=O)(=O)N2CCOCC2)cc1,1.65
3,CC(CCc1ccccc1)NC(=O)c1cccnc1 (stereo unspecified),-0.324
4,OC1CCN(CC2CC=CCC2)CC1 (stereo unspecified),0.352
5,NC(=O)C1CCN(CC(=O)Nc2ccc(F)cc2)CC1,-1.44
6,O=C(Nc1ccccc1)N1CCN(c2ccc([N+](=O)[O-])cc2)CC1,-4.4
7,Cc1onc(-c2ccccc2Cl)c1C(=O)Nc1ncccc1Cl,1.67
8,O=C(NCCN1CCOCC1)Nc1cccc(Cl)c1,0.691
9,Cc1cccc(NC(=O)c2ccc3ccccc3n2)n1,1.8
10,CCC(C)(C)C(=O)NCc1cccnc1,0.906
11,OC1CCN(Cc2ccc(Cl)c(Cl)c2)CC1,0.757
12,CCC(C)(C)C(=O)Nc1nnc(C)s1,2.34
13,Cc1ccc(S(=O)(=O)NCc2cccnc2)cc1,1.35
14,CCOC(=O)Nc1nnc(-c2ccccc2)s1,2.1
15,CC(=O)c1ccc(N2CCN(C(=O)c3c(F)cccc3F)CC2)c(F)c1,-3.29
16,Cc1ccc(Cl)c2c1NC(=O)C2=O,1.65
